Measurements: the supplement of paper PMC7125110
± gives the standard error. The uncertainty is large for many entries.

B1: glmS ribozyme (parent)
chain: AUAAAAGCGCCAGAACUACAGAAAUGUAGUUGACGAGGAGGAGGUUUAUCGAAUUUUCGGCGGAUGCCUCCAAA

Variants of: B1
Test: self-cleavage kobs at 640 uM GlcN6P; higher = faster cleavage; RNA array
Conditions: with glucosamine-6-phosphate
In short: (§1)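 Sequenced MiSeq chips were the platform: E. coli RNA polymerase transcribed barcoded ribozyme variants on them in situ, and a hybridised Cy3 probe tracked these at 37 °C. After glucosamine-6-phosphate (40 μM to 10 mM) in HEPES/KCl/Mg(OAc)2 buffer was flowed in, tiles were imaged over ~14 h. Signals normalised to baseline and to non-cleaving reference variants were reduced to per-tile medians and fit to one- or two-exponential decays to obtain kobs. kcat and KM were derived through weighted Michaelis–Menten fits across concentrations.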
In the case of A42G U45A, the “self-cleavage kobs at 640 uM GlcN6P” value is reported as 0.0159 ± 0.0095 s⁻¹.
For G44C A53U, the “self-cleavage kobs at 640 uM GlcN6P” value was 2.75e-05 ± 1.5e-05 s⁻¹.
G44U A53C was tested, and the “self-cleavage kobs at 640 uM GlcN6P” value was 2.81e-05 ± 1.4e-05 s⁻¹.
With G44U U56A the “self-cleavage kobs at 640 uM GlcN6P” value was 1.9e-05 ± 9.8e-06 s⁻¹.
With U45A U46C the “self-cleavage kobs at 640 uM GlcN6P” value was 0.0551 ± 0.034 s⁻¹.
With U45C G66C C71A the “self-cleavage kobs at 640 uM GlcN6P” value was 0.000576 ± 0.0003 s⁻¹.
With U45G C58A G66U the “self-cleavage kobs at 640 uM GlcN6P” value was 2.81e-05 ± 2.4e-05 s⁻¹.
With U45G C68A the “self-cleavage kobs at 640 uM GlcN6P” value was 0.000389 ± 0.00038 s⁻¹.
U46A C68A was tested, and the “self-cleavage kobs at 640 uM GlcN6P” value was 3.48e-05 ± 3.3e-05 s⁻¹.
U46G C58G U69G was tested, and the “self-cleavage kobs at 640 uM GlcN6P” value was 0.000191 ± 0.00011 s⁻¹.
In the case of U47A U55C U69C, the “self-cleavage kobs at 640 uM GlcN6P” value is reported as 2.98e-05 ± 1.6e-05 s⁻¹.
U47C C58G was tested, and the “self-cleavage kobs at 640 uM GlcN6P” value was 1.44e-05 ± 1.4e-05 s⁻¹.
With U47G A48U U65G the “self-cleavage kobs at 640 uM GlcN6P” value was 2.77e-05 ± 1.6e-05 s⁻¹.
For U47G G59C C70U, the “self-cleavage kobs at 640 uM GlcN6P” value was 4.17e-05 ± 2.8e-05 s⁻¹.
A48G C50U C70U was tested, and the “self-cleavage kobs at 640 uM GlcN6P” value was 3.38e-05 ± 2.2e-05 s⁻¹.
For A48G C58G G63A C70A, the “self-cleavage kobs at 640 uM GlcN6P” value was 3.53e-05 ± 2.4e-05 s⁻¹.
A48G G66A was tested, and the “self-cleavage kobs at 640 uM GlcN6P” value was 2.99e-05 ± 1.8e-05 s⁻¹.
For A48G U49A C68G, the “self-cleavage kobs at 640 uM GlcN6P” value was 3.13e-05 ± 2.4e-05 s⁻¹.
A48G U56A U69G was tested, and the “self-cleavage kobs at 640 uM GlcN6P” value was 3.12e-05 ± 2.6e-05 s⁻¹.
A48U A53U U69C was tested, and the “self-cleavage kobs at 640 uM GlcN6P” value was 2.58e-05 ± 2e-05 s⁻¹.
In the case of A48U C50G C67U, the “self-cleavage kobs at 640 uM GlcN6P” value is reported as 0.000257 ± 0.00017 s⁻¹.
In the case of A48U G66A, the “self-cleavage kobs at 640 uM GlcN6P” value is reported as 3.45e-05 ± 1.8e-05 s⁻¹.
With A48U U69A the “self-cleavage kobs at 640 uM GlcN6P” value was 3.25e-05 ± 1.9e-05 s⁻¹.
U49A C68G was tested, and the “self-cleavage kobs at 640 uM GlcN6P” value was 2.67e-05 ± 1.4e-05 s⁻¹.
For U49A U55C, the “self-cleavage kobs at 640 uM GlcN6P” value was 0.00412 ± 0.0039 s⁻¹.
For U49G C58U C70U C71U, the “self-cleavage kobs at 640 uM GlcN6P” value was 2.96e-05 ± 2.9e-05 s⁻¹.
For C50A C61A C68A, the “self-cleavage kobs at 640 uM GlcN6P” value was 4.71e-05 ± 3.4e-05 s⁻¹.
In the case of C50A C67G, the “self-cleavage kobs at 640 uM GlcN6P” value is reported as 0.000223 ± 0.00013 s⁻¹.
For C50A C68A, the “self-cleavage kobs at 640 uM GlcN6P” value was 3.4e-05 ± 2.2e-05 s⁻¹.
With C50G C58A G66A the “self-cleavage kobs at 640 uM GlcN6P” value was 6.61e-05 ± 3.5e-05 s⁻¹.
For C50G C58U, the “self-cleavage kobs at 640 uM GlcN6P” value was 2.92e-05 ± 1.6e-05 s⁻¹.
For C50G C70U, the “self-cleavage kobs at 640 uM GlcN6P” value was 0.0013 ± 0.00074 s⁻¹.
For C50G G63C C71U, the “self-cleavage kobs at 640 uM GlcN6P” value was 8.54e-05 ± 5.5e-05 s⁻¹.
C50G U54A U65A was tested, and the “self-cleavage kobs at 640 uM GlcN6P” value was 2.96e-05 ± 2.8e-05 s⁻¹.
With C50G U54C the “self-cleavage kobs at 640 uM GlcN6P” value was 3.43e-05 ± 2.6e-05 s⁻¹.
For C50G U55G, the “self-cleavage kobs at 640 uM GlcN6P” value was 2.02e-05 ± 1.9e-05 s⁻¹.
For C50U C61A C68U, the “self-cleavage kobs at 640 uM GlcN6P” value was 2.58e-05 ± 2.4e-05 s⁻¹.
For C50U C61U C68A, the “self-cleavage kobs at 640 uM GlcN6P” value was 2.66e-05 ± 1.9e-05 s⁻¹.
C50U G66U C70G was tested, and the “self-cleavage kobs at 640 uM GlcN6P” value was 5.84e-05 ± 3.3e-05 s⁻¹.
For C50U U54G, the “self-cleavage kobs at 640 uM GlcN6P” value was 1.84e-05 ± 1.8e-05 s⁻¹.
With C50U U56A C68U the “self-cleavage kobs at 640 uM GlcN6P” value was 3.43e-05 ± 3.3e-05 s⁻¹.
In the case of C50U U69C, the “self-cleavage kobs at 640 uM GlcN6P” value is reported as 2.17e-05 ± 1.3e-05 s⁻¹.
In the case of G51A C70A, the “self-cleavage kobs at 640 uM GlcN6P” value is reported as 2.94e-05 ± 1.8e-05 s⁻¹.
With G51A C70U the “self-cleavage kobs at 640 uM GlcN6P” value was 1.56e-05 ± 1.5e-05 s⁻¹.
G51A C71G was tested, and the “self-cleavage kobs at 640 uM GlcN6P” value was 2.4e-05 ± 1.5e-05 s⁻¹.
For G51A U54A G59A C68G, the “self-cleavage kobs at 640 uM GlcN6P” value was 3.85e-05 ± 2.7e-05 s⁻¹.
In the case of G51U A53G U69G, the “self-cleavage kobs at 640 uM GlcN6P” value is reported as 3.95e-05 ± 2.2e-05 s⁻¹.
In the case of G51U A53U C68A, the “self-cleavage kobs at 640 uM GlcN6P” value is reported as 3.12e-05 ± 2.2e-05 s⁻¹.
With G51U C68A the “self-cleavage kobs at 640 uM GlcN6P” value was 3.03e-05 ± 1.6e-05 s⁻¹.
With G51U U69A C71A the “self-cleavage kobs at 640 uM GlcN6P” value was 4.46e-05 ± 2.4e-05 s⁻¹.
With A52C C67A C68G the “self-cleavage kobs at 640 uM GlcN6P” value was 4.2e-05 ± 2.2e-05 s⁻¹.
A52C C67A C71U was tested, and the “self-cleavage kobs at 640 uM GlcN6P” value was 5.13e-05 ± 2.8e-05 s⁻¹.
A52C C70A was tested, and the “self-cleavage kobs at 640 uM GlcN6P” value was 1.93e-05 ± 1.6e-05 s⁻¹.
With A52C C70U the “self-cleavage kobs at 640 uM GlcN6P” value was 2.05e-05 ± 1.7e-05 s⁻¹.
For A52G U57G C58U, the “self-cleavage kobs at 640 uM GlcN6P” value was 3.67e-05 ± 2.3e-05 s⁻¹.
With A52U U69C C70G the “self-cleavage kobs at 640 uM GlcN6P” value was 5.53e-05 ± 3.2e-05 s⁻¹.
A53C U56A G59A was tested, and the “self-cleavage kobs at 640 uM GlcN6P” value was 2.32e-05 ± 2.1e-05 s⁻¹.
In the case of A53C U56C, the “self-cleavage kobs at 640 uM GlcN6P” value is reported as 2.69e-05 ± 1.9e-05 s⁻¹.
A53G C58U C70A was tested, and the “self-cleavage kobs at 640 uM GlcN6P” value was 4.6e-05 ± 2.3e-05 s⁻¹.
With A53G G63C C70A the “self-cleavage kobs at 640 uM GlcN6P” value was 2.86e-05 ± 2.4e-05 s⁻¹.
For A53U A64U, the “self-cleavage kobs at 640 uM GlcN6P” value was 2.48e-05 ± 1.6e-05 s⁻¹.
In the case of A53U U54C C67U C70A, the “self-cleavage kobs at 640 uM GlcN6P” value is reported as 3.38e-05 ± 2.9e-05 s⁻¹.
For U54A A64C, the “self-cleavage kobs at 640 uM GlcN6P” value was 2.73e-05 ± 2.4e-05 s⁻¹.
In the case of U54A G59C C68A C70A, the “self-cleavage kobs at 640 uM GlcN6P” value is reported as 2.51e-05 ± 2.2e-05 s⁻¹.
With U54G A64C C67G C68U U69C the “self-cleavage kobs at 640 uM GlcN6P” value was 8.13e-05 ± 4.4e-05 s⁻¹.
For U55G A64U, the “self-cleavage kobs at 640 uM GlcN6P” value was 1.55e-05 ± 9.9e-06 s⁻¹.
With U56A C58G C67U the “self-cleavage kobs at 640 uM GlcN6P” value was 3.08e-05 ± 1.7e-05 s⁻¹.
In the case of U56A U57C, the “self-cleavage kobs at 640 uM GlcN6P” value is reported as 3.13e-05 ± 1.8e-05 s⁻¹.
For U56C C71A, the “self-cleavage kobs at 640 uM GlcN6P” value was 2.52e-05 ± 1.5e-05 s⁻¹.

Variants of: B1
Test: self-cleavage kobs at 2500 uM GlcN6P; higher = faster cleavage; RNA array
Conditions: with glucosamine-6-phosphate
In short: as §1
In the case of A42G U45A, the “self-cleavage kobs at 2500 uM GlcN6P” value is reported as 0.03 ± 0.015 s⁻¹.
In the case of U45G C58A G66U, the “self-cleavage kobs at 2500 uM GlcN6P” value is reported as 2.37e-05 ± 2.2e-05 s⁻¹.
In the case of U46G C58G U69G, the “self-cleavage kobs at 2500 uM GlcN6P” value is reported as 3.89e-05 ± 2.9e-05 s⁻¹.
In the case of A48G G66A, the “self-cleavage kobs at 2500 uM GlcN6P” value is reported as 3.95e-05 ± 2.1e-05 s⁻¹.
For U49A C68G, the “self-cleavage kobs at 2500 uM GlcN6P” value was 2.47e-05 ± 1.9e-05 s⁻¹.
With C50A C61A C68A the “self-cleavage kobs at 2500 uM GlcN6P” value was 3.07e-05 ± 2.4e-05 s⁻¹.
With C50U G66U C70G the “self-cleavage kobs at 2500 uM GlcN6P” value was 5.78e-05 ± 2.9e-05 s⁻¹.
G51A C70U was tested, and the “self-cleavage kobs at 2500 uM GlcN6P” value was 1.64e-05 ± 1.3e-05 s⁻¹.
In the case of G51A C71G, the “self-cleavage kobs at 2500 uM GlcN6P” value is reported as 2.14e-05 ± 1.4e-05 s⁻¹.
G51A U54A G59A C68G was tested, and the “self-cleavage kobs at 2500 uM GlcN6P” value was 2.73e-05 ± 2e-05 s⁻¹.
With G51U A53U C68A the “self-cleavage kobs at 2500 uM GlcN6P” value was 3.36e-05 ± 2.8e-05 s⁻¹.
For U54G A64C C67G C68U U69C, the “self-cleavage kobs at 2500 uM GlcN6P” value was 5.62e-05 ± 3.3e-05 s⁻¹.

Variants of: B1
Test: self-cleavage kobs at 10000 uM GlcN6P; higher = faster cleavage; RNA array
Conditions: with glucosamine-6-phosphate
In short: as §1
A42G U45A was tested, and the “self-cleavage kobs at 10000 uM GlcN6P” value was 0.0116 ± 0.0073 s⁻¹.
For A48U C50G C67U, the “self-cleavage kobs at 10000 uM GlcN6P” value was 2.74e-05 ± 1.9e-05 s⁻¹.
For C50A C67G, the “self-cleavage kobs at 10000 uM GlcN6P” value was 1.44e-05 ± 9.4e-06 s⁻¹.
For C50G C58U, the “self-cleavage kobs at 10000 uM GlcN6P” value was 2.05e-05 ± 1e-05 s⁻¹.
C50U U54G was tested, and the “self-cleavage kobs at 10000 uM GlcN6P” value was 1.88e-05 ± 1.2e-05 s⁻¹.
C50U U69C was tested, and the “self-cleavage kobs at 10000 uM GlcN6P” value was 1.62e-05 ± 1.1e-05 s⁻¹.

Variants of: B1
Test: self-cleavage kobs at 160 uM GlcN6P; higher = faster cleavage; RNA array
Conditions: with glucosamine-6-phosphate
In short: as §1
With A48G U56A U69G the “self-cleavage kobs at 160 uM GlcN6P” value was 3.03e-05 ± 1.9e-05 s⁻¹.
In the case of A48U U69A, the “self-cleavage kobs at 160 uM GlcN6P” value is reported as 4.15e-05 ± 2.6e-05 s⁻¹.
C50A C67G was tested, and the “self-cleavage kobs at 160 uM GlcN6P” value was 2.04e-05 ± 1.2e-05 s⁻¹.
C50G G63C C71U was tested, and the “self-cleavage kobs at 160 uM GlcN6P” value was 3.98e-05 ± 2.5e-05 s⁻¹.
C50U C61A C68U was tested, and the “self-cleavage kobs at 160 uM GlcN6P” value was 3.8e-05 ± 2.2e-05 s⁻¹.
G51U C68A was tested, and the “self-cleavage kobs at 160 uM GlcN6P” value was 2.24e-05 ± 1.6e-05 s⁻¹.
In the case of A53G C58U C70A, the “self-cleavage kobs at 160 uM GlcN6P” value is reported as 3.63e-05 ± 2.3e-05 s⁻¹.
For A53G G63C C70A, the “self-cleavage kobs at 160 uM GlcN6P” value was 3.33e-05 ± 2.8e-05 s⁻¹.
